The results in this text go back to PubChem BioAssay AID662 (National Center for Advancing Translational Sciences (NCATS), 2007).

The structures appear in SMILES notation. Where “and” joins values, the source holds several entries; their conditions need not be identical. Equal values may be shown once. The list shows a part of the results. Shown are side measurements of this screen, not its main read-out; they come without a call. Compounds called inactive in the main read-out are mostly missing here. Potencies come from curve fits of mixed quality, noted in brackets.

The nature of this test: Cell signaling CRE-BLA (Fsk stim). Conditions: CHO CRE-bla reporter (cAMP response element driving beta-lactamase), forskolin EC10, beta-lactamase ratio; measured here: 460 nm blue channel. A digest of the protocol:
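The 460nm/530nm emission ratio after CCF4 loading defined %Activity, from which AC50 values were obtained. CRE-bla CHO cells received compound dilution series together with an EC10 level of NKH 477 for 3 hours at 37 degrees Celsius.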
Turning to `COc1cc(C(=O)Nc2cccc3ncccc23)cc(OC)c1OC`, the AC50 is 10 µM [rising, single point].
The figure for `CCCc1nc2oc3c(NCC4CCCO4)ncnc3c2c2c1COC(C)(C)C2` (configuration not stated) is 1.58 µM [rising, full curve]; for `CCOC(=O)C1=C(C)N=C(/N=C/N(C)C)SC1c1ccccc1` (configuration not stated) it is 31.6 µM [falling, partial curve]; for `O=C(c1ccccc1)c1ccc(N2CCOCC2)c(NC(=O)c2ccco2)c1` it is 6.31 µM [rising, partial curve].
In the case of `CC(=O)NC(CC(C)C)C(=O)NC(=O)NCc1ccccc1` (configuration not stated) it was 0.00794 µM [falling, full curve, poor fit]; in that of `CCc1nc(N(CC)CC)c2oc3ccccc3c2n1`, 7.94 µM [rising, partial curve].
In the case of `COc1ccc(CCNc2oc(COc3ccccc3Cl)nc2C#N)cc1OC` it was 25.1 µM [falling, single point].
For the compound `O=c1c(-c2cccs2)nc2cnc(N3CCNCC3)nc2n1CCc1ccccc1`, the concentration at half-maximal activity (AC50) was 2 µM [rising, full curve].
The figure for `CCCCSc1nc2c(cnn2-c2ccc(F)cc2)c(=O)[nH]1` is 3.16 µM [rising, full curve]; for `O=C(NC1CCCCC1)C(c1ccccc1)N1CCOCC1` (configuration not stated) it is 0.631 µM [falling, single point]; for `CCCCn1c(NC(C)CC)nc2c1c(=O)[nH]c(=O)n2C` (configuration not stated) it is 15.8 µM [rising, single point].
In the case of `CCOC(=O)C(C)n1cnc2c(nnn2-c2ccc(OC)cc2)c1=O` (configuration not stated) it was 5.01 µM [rising, single point].
In the case of `CC(=O)c1c(NC(=O)C(C)C)nc(C)nc1-c1ccccc1` it was 0.398 µM [rising, full curve]; in that of `Cc1ccc(-c2nn(C)c(=O)c3ccccc23)cc1S(=O)(=O)NCCO`, 15.8 µM [rising, partial curve].
On to `C=C[C@@]1(C)CC(=O)[C@@]2(O)[C@@]3(C)[C@@H](O)CCC(C)(C)[C@@H]3[C@H](OC(=O)CCN(C)C)[C@H](OC(C)=O)[C@@]2(C)O1`, for which the AC50 was 0.0631 µM [rising, full curve].
With `COc1ncnc2c1oc1nc(CC(C)C)c3c(c12)CCCC3`, the AC50 was 2.51 µM [rising, partial curve].
The figure for `COc1ccc(CCNc2oc(-c3ccco3)nc2C#N)cc1` is 10 µM [rising, partial curve].
In the case of `COc1ncc2nc(-c3cc(F)cc(F)c3)c(=O)n(Cc3cccs3)c2n1` it was 6.31 µM [rising, partial curve].
In the case of `CCCCOc1ccccc1C1CC(=O)NC2=C1C(=O)CCC2` (configuration not stated) it was 3.98 µM [rising, full curve]; in that of `CN(C)c1ccc(-c2nccc(NCCN3CCOCC3)n2)cc1`, 5.01 µM [rising, partial curve].
`CCOC(=O)c1sc(NC(=O)CSc2nnc(-c3ccc(OC)cc3)n2CCOC)nc1C`: the AC50 is 10 µM [rising, single point].
The figure for `Cc1ccccc1Cc1c(C)nc2ncnn2c1C` is 10 µM [rising, single point]; for `COc1ccc(-c2noc(CCC(=O)NCc3cccnc3)n2)cc1OC` it is 1 µM [rising, full curve]; for `CCCc1cc2c(=O)c(-c3ccccn3)coc2cc1OC` it is 12.6 µM [rising, partial curve].
As for `COc1ccc(OC)c(C2=NOC(C(=O)Nc3cccnc3)C2)c1` (configuration not stated), the concentration at half-maximal activity (AC50) is 0.631 µM [falling, partial curve].
On to `Nc1ncnc2c1nc(Br)n2[C@H]1O[C@H]2COP(=O)(O)O[C@H]2[C@@H]1O`, for which the AC50 was 0.316 µM [rising, full curve, poor fit].
In the case of `O=C(CSc1nnnn1-c1ccccc1)Nc1nsc(-c2ccccc2)n1` it was 3.98 µM [rising, single point]; in that of `CN1CCc2c(sc3c2C(=O)NC(c2ccccn2)N3)C1` (configuration not stated), 12.6 µM [rising, partial curve]; in that of `Cc1ccc(NC2c3ncccc3C(=O)N2C2CCCCC2)cc1C` (configuration not stated), 0.398 µM [rising, single point].
The figure for `COc1ccc(-n2c(=O)c(-c3cc(F)cc(F)c3)nc3cnc(N4CCNCC4)nc32)cc1` is 10 µM [rising, partial curve]; for `CCOC(=O)c1cnc2c(cnn2CC)c1NN=C(C)C` it is 15.8 µM [rising, partial curve] and 398 nM [rising, full curve].
In the case of `CCn1c(SCC(=O)OCC(=O)N2c3ccccc3NC(=O)C2(C)C)nnc1-c1ccco1`, the AC50 was 3.98 µM [falling, partial curve].
As for `COc1cc(-c2c(C#N)c(N)nc3c2c(C)nn3-c2ccc(C)c(C)c2)cc(OC)c1OC`, the AC50 is 1.58 µM [rising, full curve].
In the case of `COCCn1c(=O)c(-c2ccccc2)nc2cnc(N(C)C)nc21` it was 10 µM [rising, partial curve]; in that of `O=C1NCCCC2c3c(cc(Br)c(O)c3Br)OC12N1CCOCC1` (configuration not stated), 1.58 µM [rising, full curve, poor fit].
In the case of `O=C(Nc1cccnc1)c1cnn2c(C(F)F)cc(C3CC3)nc12` it was 6.31 µM [rising, partial curve]; in that of `CN1CCN(c2ncc3nc(-c4cccc(C#N)c4)c(=O)n(C[C@H]4CCCO4)c3n2)CC1`, 20 µM [rising, partial curve].
In the case of `Cc1onc(-c2ccccc2)c1C(=O)n1cccn1` it was 1.26 µM [falling, partial curve, poor fit]; in that of `O=C(COc1ccccc1)Nc1nn[nH]n1`, 1.58 µM [rising, partial curve].
With `CCOC(=O)c1c(C(C)(C)C)oc2ccc(OCC#N)cc12`, the AC50 is 6.31 µM [rising, partial curve].
In the case of `CCOC(=O)c1sc2nc(CC(=O)OC)nc(NCc3ccco3)c2c1C` it was 10 µM [rising, partial curve]; in that of `Cc1nc2ccc(Br)cn2c(=O)c1Cl`, 20 µM [rising, single point]; in that of `CCCCCCn1c(N2CCC(C(N)=O)CC2)nc2c1c(=O)n(C)c(=O)n2C`, 10 µM [rising, single point].
The figure for `CC1(C)Cc2c(C#N)c(NCCCO)nc(-c3ccccc3)c2CO1` is 10 µM [rising, partial curve].
The figure for `CCOC(=O)c1sc(NC(=O)COC(=O)Cn2cnc3ccccc32)c(C(=O)OCC)c1C` is 7.94 µM [rising, partial curve]; for `Cc1ccc2[nH]c(=O)c(CN(CCN3CCOCC3)C(=O)Nc3ccc(F)cc3)cc2c1` it is 10 µM [rising, partial curve]; for `Brc1ccc(C2=Nn3c(nnc3-c3cccnc3)SC2)s1` it is 10 µM [falling, partial curve].
Take `Cc1ccc(CNC(=O)C2CCN(S(=O)(=O)c3c(C)noc3C)CC2)cc1`: the AC50 was 0.316 µM [rising, full curve, poor fit].
As for `CCc1cc(=O)oc2c(C)c(O)c(CN3CCCCC3)cc12`, the AC50 is 12.6 µM [rising, partial curve].
For the compound `COc1cc(C(=O)N2CCC(C(=O)Nc3cccc(C(C)=O)c3)CC2)cc(OC)c1OC`, the AC50 was 12.6 µM [rising, partial curve].
Regarding `CCOC(=O)CSc1nc2ccccc2c(=O)n1CC1CCCO1` (configuration not stated), the AC50 is 6.31 µM [rising, partial curve].
Turning to `CC(=O)NCCNc1nc(-c2ccccc2C)nc2ccccc12`, the AC50 is 7.94 µM [rising, partial curve].
The figure for `O=C(NCC(=O)N(CCN1CCOCC1)C(C(=O)NC1CCCC1)c1cccs1)c1ccco1` (configuration not stated) is 1 µM [falling, full curve, poor fit]; for `COC(=O)c1c(NC(=O)c2nc3ncccn3n2)sc(C(=O)N(C)C)c1C` it is 25.1 µM [falling, single point]; for `O=c1c2c(nc3cc(-c4ccc(F)cc4)[nH]n13)CCCC2` it is 12.6 µM [rising, partial curve].
The figure for `CCOC(=O)N1CCN(C(=O)Cc2ccc(-n3c(=S)[nH]c4ccccc4c3=O)cc2)CC1` is 0.0316 µM [falling, full curve, poor fit]; for `CCOC(=O)c1c(C)[nH]c(C(=O)OCC(=O)N2c3ccccc3CC2C)c1C` (configuration not stated) it is 10 µM [rising, single point]; for `Cc1cccc(C)c1NC(=O)CSCC(=O)O` it is 0.251 µM [falling, partial curve].
In the case of `CCOC(=O)c1cnc(SCc2nc(N)nc(Nc3ccc(C)cc3)n2)nc1N` it was 12.6 µM [rising, partial curve]; in that of `COc1ccc(OC)c(Nc2ncnc3c2cnn3-c2cccc(C)c2)c1`, 10 µM [rising, single point]; in that of `COC(=O)c1cc(NC(=O)C23CCC(C)(C(=O)O2)C3(C)C)cc(C(=O)OC)c1` (configuration not stated), 0.01 µM [falling, full curve].
`CCC1S/C(=C(\C#N)C(=O)NCc2ccco2)N(c2ccc(F)cc2)C1=O` (configuration not stated): the AC50 is 25.1 µM [rising, single point].
In the case of `Cc1nc2ccc3nc(NC(=O)C4COc5ccccc5O4)sc3c2s1` (configuration not stated) it was 12.6 µM [rising, partial curve]; in that of `COCCn1c(=O)c(-c2ccccc2)nc2cnc(OC)nc21`, 12.6 µM [rising, partial curve]; in that of `Cc1[nH]nc2c1C(c1ccccc1F)CC(=O)N2` (configuration not stated), 0.631 µM [falling, full curve].
In the case of `O=C1CC2(CCCCC2)Oc2ccc(OCC(=O)N3CCOCC3)cc21` it was 7.94 µM [rising, partial curve, poor fit]; in that of `CCOc1cc(C2C(C(=O)OC)=C(C)N=C3SC(C)C(=O)N32)ccc1OC(C)=O` (configuration not stated), 10 µM [rising, partial curve].
